# The other results are listed elsewhere or left out. Repeats are few or missing, and single values can be far off.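 Imaging used 1,536-well plates; nuclei positive for cleaved PARP by antibody were divided by total DNA-stained nuclei to yield the apoptosis fraction. Doses for screening kept most cells viable, and cell lines differ markedly in resting and induced cleaved-PARP levels.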
# Test system: A375
# Assay: cleaved PARP positive nuclei fraction relative to DMSO control; melanoma cells; higher = more apoptosis
# Conditions: library dose: low library concentration; 72 h
row,SMILES,cleaved PARP positive nuclei fraction [%]
1,"CC1(C)NC(=O)N(c2ccc([N+](=O)[O-])c(C(F)(F)F)c2)C1=O [nilutamide] + COc1ccc(COc2ccc(Cc3cnc(N)nc3N)cc2OC)cc1 [GW2580] (first compound 1 µM, partner dose 1 µM)",57.6
2,"COCC[n+]1c2c(n(Cc3cnccn3)c1C)C(=O)c1ccccc1C2=O + CCc1ccc(CCOc2ccc(CC3SC(=O)NC3=O)cc2)nc1 [pioglitazone] (first compound 0.0004 µM, partner dose 2 µM)",301
3,"O=C(CCCCCCC(=O)Nc1ccccc1)NO [vorinostat] + COc1ccc(-c2ccc3c(N4CCOCC4)nc(N4C[C@@H](C)O[C@@H](C)C4)nc3n2)cc1CO [KU0063794] (first compound 0.08 µM, partner dose 0.02 µM)",52.7
4,"COc1cc(Nc2ncc(F)c(Nc3ccc4c(n3)NC(=O)C(C)(C)O4)n2)cc(OC)c1OC [Tamatinib] + O=S(=O)(c1ccccc1)N(CC(F)(F)F)c1ccc(C(O)(C(F)(F)F)C(F)(F)F)cc1 [T0901317] (first compound 0.4 µM, partner dose 1.4 µM)",163
5,"NC(=O)Nc1cc(-c2cccc(F)c2)sc1C(=O)N[C@H]1CCCNC1 + O=S(=O)(c1ccccc1)N(CC(F)(F)F)c1ccc(C(O)(C(F)(F)F)C(F)(F)F)cc1 [T0901317] (first compound 0.02 µM, partner dose 1.4 µM)",407
6,"Cn1nnc2c(C(N)=O)ncn2c1=O [temozolomide] + COc1ccc(-c2ccc3c(N4CCOCC4)nc(N4C[C@@H](C)O[C@@H](C)C4)nc3n2)cc1CO [KU0063794] (first compound 2 µM, partner dose 0.02 µM)",34.3
7,"Nc1cccc2c1CN(C1CCC(=O)NC1=O)C2=O (stereo not drawn) [lenalidomide] + c1cc(-c2cnn3cc(-c4ccc(OCCN5CCCCC5)cc4)cnc23)ccn1 [Dorsomorphin] (first compound 1 µM, partner dose 0.4 µM)",154
8,"Cn1cncc1[C@@](N)(c1ccc(Cl)cc1)c1ccc2c(c1)c(-c1cccc(Cl)c1)cc(=O)n2C [tipifarnib] + c1cc(-c2cnn3cc(-c4ccc(OCCN5CCCCC5)cc4)cnc23)ccn1 [Dorsomorphin] (first compound 0.01 µM, partner dose 0.4 µM)",140
9,"Cc1cc(N2CCOCC2)cc2[nH]c(-c3c(NC[C@@H](O)c4cccc(Cl)c4)cc[nH]c3=O)nc12 + Cn1cc(/C=C2\C(=O)Nc3cccnc32)c2ccccc21 [GW441756] (first compound 0.2 µM, partner dose 0.4 µM)",104
10,"Cn1c(Nc2ccc(C(F)(F)F)cc2)nc2cc(Oc3ccnc(-c4ncc(C(F)(F)F)[nH]4)c3)ccc21 + Oc1nc(-c2ccc(C(F)(F)F)cc2)nc2c1CSCC2 [XAV939] (first compound 0.08 µM, partner dose 2 µM)",268
11,"Cn1nnc2c(C(N)=O)ncn2c1=O [temozolomide] + CC(C)CCN1c2nc(Nc3cc(F)c(O)c(F)c3)ncc2N(C)C(=O)C1C [BID1870] (first compound 2 µM, partner dose 0.2 µM)",250
12,"C[C@]1(c2nc3c(C(N)=O)cccc3[nH]2)CCCN1 [Veliparib] + O=C(O)C(=O)Nc1sc2c(c1C(=O)O)CCNC2 [TCS401] (first compound 1.4 µM, partner dose 1.66667 µM)",386
13,"O=C(Nc1cccc(Cl)c1)Nc1ncc(CCNc2ncnc3ccsc23)s1 + COc1cc2ncnc(Nc3ccc(Oc4ccccc4)cc3)c2cc1OC [SrcI1] (first compound 0.0008 µM, partner dose 2 µM)",124
14,"NC(=O)Nc1cc(-c2cccc(F)c2)sc1C(=O)N[C@H]1CCCNC1 + O=c1cc(-c2cccc3c2Sc2ccccc2S3)oc(N2CCOCC2)c1 [KU55933] (first compound 0.02 µM, partner dose 1 µM)",140
15,"CC(C)(C)c1cnc(CSc2cnc(NC(=O)C3CCNCC3)s2)o1 + N#Cc1c(O)c2c(-c3ccc(-c4ccccc4O)cc3)csc2[nH]c1=O [A769662] (first compound 0.01 µM, partner dose 2 µM)",35.7

# Single entries from above:
# cleaved PARP positive nuclei fraction [%] with CC1(C)NC(=O)N(c2ccc([N+](=O)[O-])c(C(F)(F)F)c2)C1=O [nilutamide] + COc1ccc(COc2ccc(Cc3cnc(N)nc3N)cc2OC)cc1 [GW2580] (first compound 1 µM, partner dose 1 µM) is entered as 57.6
# cleaved PARP positive nuclei fraction [%] with O=C(Nc1cccc(Cl)c1)Nc1ncc(CCNc2ncnc3ccsc23)s1 + COc1cc2ncnc(Nc3ccc(Oc4ccccc4)cc3)c2cc1OC [SrcI1] (first compound 0.0008 µM, partner dose 2 µM) is entered as 124

# Test system: C32
# Assay: as above
# Conditions: library dose: low library concentration; 72 h
row,SMILES,cleaved PARP positive nuclei fraction [%]
1,"C=CCn1c(=O)c2cnc(Nc3ccc(N4CCN(C)CC4)cc3)nc2n1-c1cccc(C(C)(C)O)n1 + O=S(=O)(c1ccccc1)N(CC(F)(F)F)c1ccc(C(O)(C(F)(F)F)C(F)(F)F)cc1 [T0901317] (first compound 0.02 µM, partner dose 1.4 µM)",69.2
2,"O=C(Nc1cccc(Cl)c1)Nc1ncc(CCNc2ncnc3ccsc23)s1 + COc1cc(N2CCC(N3CCN(C)CC3)CC2)ccc1Nc1ncc(Cl)c(Nc2ccccc2S(=O)(=O)C(C)C)n1 [NVP-TAE684] (first compound 0.0008 µM, partner dose 0.08 µM)",99
3,"C[C@]1(c2nc3c(C(N)=O)cccc3[nH]2)CCCN1 [Veliparib] + COc1cc2ncnc(Nc3ccc(Oc4ccccc4)cc3)c2cc1OC [SrcI1] (first compound 1.4 µM, partner dose 2 µM)",71
4,"Cn1c(Nc2ccc(C(F)(F)F)cc2)nc2cc(Oc3ccnc(-c4ncc(C(F)(F)F)[nH]4)c3)ccc21 + COc1ccc(COc2ccc(Cc3cnc(N)nc3N)cc2OC)cc1 [GW2580] (first compound 0.08 µM, partner dose 1 µM)",60.7
5,"COCC[n+]1c2c(n(Cc3cnccn3)c1C)C(=O)c1ccccc1C2=O + COc1ccc(COc2ccc(Cc3cnc(N)nc3N)cc2OC)cc1 [GW2580] (first compound 0.0004 µM, partner dose 1 µM)",119
6,"Cc1ccc(NC(=O)c2cccc(N(C)C)c2)cc1NC(=O)c1ccc(O)cc1 + COC(=O)c1sccc1S(=O)(=O)Nc1ccc(Nc2ccccc2)cc1OC [GSK0660] (first compound 2 µM, partner dose 1 µM)",55.8
7,"COCC[n+]1c2c(n(Cc3cnccn3)c1C)C(=O)c1ccccc1C2=O + CC(C)CCN1c2nc(Nc3cc(F)c(O)c(F)c3)ncc2N(C)C(=O)C1C [BID1870] (first compound 0.0004 µM, partner dose 0.2 µM)",95.4
8,"CC(C)(C)c1cnc(CSc2cnc(NC(=O)C3CCNCC3)s2)o1 + Cc1cc([N+](=O)[O-])ccc1NS(=O)(=O)c1cc(Cl)ccc1Cl [FH535] (first compound 0.01 µM, partner dose 1 µM)",22
9,"Cc1ccc(NC(=O)c2cccc(N(C)C)c2)cc1NC(=O)c1ccc(O)cc1 + CCCCCCCCCCCC1=C(O)C(=O)C=C(O)C1=O [Embelin] (first compound 2 µM, partner dose 1.2 µM)",132
10,"Cc1ccc(NC(=O)c2cccc(N(C)C)c2)cc1NC(=O)c1ccc(O)cc1 + COc1cc(N2CCC(N3CCN(C)CC3)CC2)ccc1Nc1ncc(Cl)c(Nc2ccccc2S(=O)(=O)C(C)C)n1 [NVP-TAE684] (first compound 2 µM, partner dose 0.08 µM)",32.5
11,"Cn1cncc1[C@@](N)(c1ccc(Cl)cc1)c1ccc2c(c1)c(-c1cccc(Cl)c1)cc(=O)n2C [tipifarnib] + CCc1ccc(CCOc2ccc(CC3SC(=O)NC3=O)cc2)nc1 [pioglitazone] (first compound 0.01 µM, partner dose 2 µM)",90.2
12,"O=C(CCCCCCC(=O)Nc1ccccc1)NO [vorinostat] + COc1cc(N2CCC(N3CCN(C)CC3)CC2)ccc1Nc1ncc(Cl)c(Nc2ccccc2S(=O)(=O)C(C)C)n1 [NVP-TAE684] (first compound 0.08 µM, partner dose 0.08 µM)",84.9
13,"O=C(Nc1cccc(Cl)c1)Nc1ncc(CCNc2ncnc3ccsc23)s1 + COC(=O)c1sccc1S(=O)(=O)Nc1ccc(Nc2ccccc2)cc1OC [GSK0660] (first compound 0.0008 µM, partner dose 1 µM)",46.5
14,"C=CCn1c(=O)c2cnc(Nc3ccc(N4CCN(C)CC4)cc3)nc2n1-c1cccc(C(C)(C)O)n1 + CC(C)CCN1c2nc(Nc3cc(F)c(O)c(F)c3)ncc2N(C)C(=O)C1C [BID1870] (first compound 0.02 µM, partner dose 0.2 µM)",75.8
15,"CO[C@@H]1[C@H](N(C)C(=O)c2ccccc2)C[C@H]2O[C@]1(C)n1c3ccccc3c3c4c(c5c6ccccc6n2c5c31)C(=O)NC4 [Midostaurin] + O=S(=O)(c1ccccc1)N(CC(F)(F)F)c1ccc(C(O)(C(F)(F)F)C(F)(F)F)cc1 [T0901317] (first compound 0.08 µM, partner dose 1.4 µM)",188
16,"Nc1cccc2c1CN(C1CCC(=O)NC1=O)C2=O (stereo not drawn) [lenalidomide] + COC(=O)c1sccc1S(=O)(=O)Nc1ccc(Nc2ccccc2)cc1OC [GSK0660] (first compound 1 µM, partner dose 1 µM)",279
17,"O=C(Nc1cccc(Cl)c1)Nc1ncc(CCNc2ncnc3ccsc23)s1 + CCc1ccc(CCOc2ccc(CC3SC(=O)NC3=O)cc2)nc1 [pioglitazone] (first compound 0.0008 µM, partner dose 2 µM)",125
18,"COCC[n+]1c2c(n(Cc3cnccn3)c1C)C(=O)c1ccccc1C2=O + O=c1cc(-c2cccc3c2Sc2ccccc2S3)oc(N2CCOCC2)c1 [KU55933] (first compound 0.0004 µM, partner dose 1 µM)",85.7

# Source: the supplement of paper PMC4604168 (melanoma cell lines)
